The values that follow come from EP0450100A1 (MEIJI SEIKA KAISHA LTD., priority 1989, dated 1991).

*: point of attachment. Tos = Cc1ccc(S(=O)(=O)*)cc1; Boc = CC(C)(C)OC(=O)*; OcHex = C1CCC(O*)CC1; Bn = c1ccc(C*)cc1

The first data set in a line: general procedure: Boc solid-phase peptide synthesis; benzhydrylamine-polystyrene resin (0.5 mmol/g); p-methylbenzhydrylamine-resin (0.3 mmol/g); active ester method, mixed anhydride method, DCC-HOBt (fragment condensation). The conditions noted are these: coupling step.
With Boc-AS(Bn)ILGS(Bn)R(Tos)T(Bn)-NH2, the step yield was 85.9%. Take Boc-ILGS(Bn)R(Tos)T(Bn)-NH2: the step yield was determined as 89.1%.

Boc-LALQ-OH: the step yield worked out at 62.5%. Consider “Boc-Lys(Cl·Z)-Leu-Ala-Leu-Gln-Lys(Cl·Z)-Tyr(Cl₂·Bzl)-Leu-Ala-Ser(Bzl)-Ile-Leu-Gly-Ser(Bzl)-Arg(Tos)-Thr(Bzl)-NH₂”, for which the step yield is listed as 85.9%.

“Boc-Lys(Cl·Z)-Tyr(Cl₂·Bzl)-Leu-Ala-Ser(Bzl)-Ile-Leu-Gly-Ser(Bzl)-Arg(Tos)-Thr(Bzl)-NH₂”: the step yield stood at 87.4%. For the substance Boc-S(Bn)ILGS(Bn)R(Tos)T(Bn)-NH2, the step yield is 66.8%. On the same count and under the same terms, to Boc-Thr(Bzl)-Lys(Cl·Z)-Leu-Leu-Ala-OH belongs 72.1%; to “Boc-Tyr(Cl₂·Bzl)-Thr(Bzl)-Lys (Cl·Z)-Leu-Leu-Ala-Lys(Cl·Z)-Leu-Ala-Leu-Gln-Lys(Cl·Z)-Tyr(Cl₂·Bzl)-Leu-Ala-Ser(Bzl)-Ile-Leu-Gly-Ser(Bzl)-Arg (Tos)-Thr(Bzl)-NH₂”, 99.4%; to Boc-VFT(Bn)D(OcHex)N-OH, 60.0%. The substance “Boc-Val-Phe-Thr(Bzl)-Asp(OcHex)-Asn-Tyr (Cl₂·Bzl)-Thr(Bzl)-Lys(Cl·Z)-Leu-Leu-Ala-Lys(Cl·Z)-Leu-Ala-Leu-Gln-Lys(Cl·Z)-Tyr(Cl₂·Bzl)-Leu-Ala-Ser(Bzl)-Ile-Leu-Gly-Ser(Bzl)-Arg(Tos)-Thr(Bzl)-NH₂” gave a step yield of 74.1%.

Another data set is described as follows: peptide synthesis. The conditions noted are these: coupling step.
Regarding Boc-FT(Bn)D(OcHex)N-OH, the step yield is listed as 88.3%.

In turn, Boc-His(Tos)-Ser(Bzl)-Asp(OcHex)-Ala-OH had a step yield of 53.0%. Substance Boc-LGS(Bn)R(Tos)T(Bn)-NH2 registered a step yield of 90.7%.

Boc-Lys (Cl·Z)-Leu-Ala-Leu-Gln-OH returned a step yield of 82.1%. On to Boc-Lys(Cl·Z)Leu-Leu-Ala-OH, for which the step yield was determined as 94.0%. With “Boc-Tyr(Cl₂·Bzl)-Thr(Bzl)-Lys(Cl·Z)-Leu-Leu-Ala-OH”, the step yield is recorded as 99.8%.
